Results are given in words; binding and its absence hold for the method and conditions named. In cells and extracts the contact can be indirect. Some binding calls cover weakened binding; strength is not graded here. Tags and fused reporters may be left off the sequences shown.

Protein sequences, listed by entry. Tags and fused reporters are not part of them. Lines headed by an entry give the natural chain unless they say otherwise; changes in a name come on top.
UniProt Q9NVJ2: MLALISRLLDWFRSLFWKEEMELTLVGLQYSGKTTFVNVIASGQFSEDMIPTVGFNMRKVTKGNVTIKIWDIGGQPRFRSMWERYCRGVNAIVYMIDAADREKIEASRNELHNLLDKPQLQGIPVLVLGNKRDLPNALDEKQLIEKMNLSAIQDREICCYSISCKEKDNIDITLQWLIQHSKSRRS

Common to all, as to test: pull-down; GST proteins on glutathione-conjugated beads incubated with transfected HeLa cell lysates; immunoblot; only the target purified
(Immunoblotting shows a protein as a band on a membrane.)

One assay addresses GST–Arl8b (UniProt Q9NVJ2).
In another assay the target is GST–Arl8b-T34N (UniProt Q9NVJ2).
The target of a further assay is GST–Rab7, P51149. As to conditions: remark: other sources report otherwise.

B1: HA–hVps41 (HeLa) (protein, UniProt P49754 1-854)
chain: MAEAEEQETGSLEESTDESEEEESEEEPKLKYERLSNGVTEILQKDAASCMTVHDKFLALGTHYGKVYLLDVQGNITQKFDVSPVKINQISLDESGEHMGVCSEDGKVQVFGLYSGEEFHETFDCPIKIIAVHPHFVRSSCKQFVTGGKKLLLFERSWMNRWKSAVLHEGEGNIRSVKWRGHLIAWANNMGVKIFDIISKQRITNVPRDDISLRPDMYPCSLCWKDNVTLIIGWGTSVKVCSVKERHASEMRDLPSRYVEIVSQFETEFYISGLAPLCDQLVVLSYVKEISEKTEREYCARPRLDIIQPLSETCEEISSDALTVRGFQENECRDYHLEYSEGESLFYIVSPRDVVVAKERDQDDHIDWLLEKKKYEEALMAAEISQKNIKRHKILDIGLAYINHLVERGDYDIAARKCQKILGKNAALWEYEVYKFKEIGQLKAISPYLPRGDPVLKPLIYEMILHEFLESDYEGFATLIREWPGDLYNNSVIVQAVRDHLKKDSQNKTLLKTLAELYTYDKNYGNALEIYLTLRHKDVFQLIHKHNLFSSIKDKIVLLMDFDSEKAVDMLLDNEDKISIKKVVEELEDRPELQHVYLHKLFKRDHHKGQRYHEKQISLYAEYDRPNLLPFLRDSTHCPLEKALEICQQRNFVEETVYLLSRMGNSRSALKMIMEELHDVDKAIEFAKEQDDGELWEDLILYSIDKPPFITGLLNNIGTHVDPILLIHRIKEGMEIPNLRDSLVKILQDYNLQILLREGCKKILVADSLSLLKKMHRTQMKGVLVDEENICESCLSPILPSDAAKPFSVVVFHCRHMFHKECLPMPSMNSAAQFCNICSAKNRGPGSAILEMKK
In the case of B1, the values for the binding result with GST–Arl8b and in the assay with GST–Arl8b-T34N were “binds” and “no binding”, respectively.

B2: HA–hVps41 (HeLa), P49754 1-854 (protein)
chain: MAEAEEQETGSLEESTDESEEEESEEEPKLKYERLSNGVTEILQKDAASCMTVHDKFLALGTHYGKVYLLDVQGNITQKFDVSPVKINQISLDESGEHMGVCSEDGKVQVFGLYSGEEFHETFDCPIKIIAVHPHFVRSSCKQFVTGGKKLLLFERSWMNRWKSAVLHEGEGNIRSVKWRGHLIAWANNMGVKIFDIISKQRITNVPRDDISLRPDMYPCSLCWKDNVTLIIGWGTSVKVCSVKERHASEMRDLPSRYVEIVSQFETEFYISGLAPLCDQLVVLSYVKEISEKTEREYCARPRLDIIQPLSETCEEISSDALTVRGFQENECRDYHLEYSEGESLFYIVSPRDVVVAKERDQDDHIDWLLEKKKYEEALMAAEISQKNIKRHKILDIGLAYINHLVERGDYDIAARKCQKILGKNAALWEYEVYKFKEIGQLKAISPYLPRGDPVLKPLIYEMILHEFLESDYEGFATLIREWPGDLYNNSVIVQAVRDHLKKDSQNKTLLKTLAELYTYDKNYGNALEIYLTLRHKDVFQLIHKHNLFSSIKDKIVLLMDFDSEKAVDMLLDNEDKISIKKVVEELEDRPELQHVYLHKLFKRDHHKGQRYHEKQISLYAEYDRPNLLPFLRDSTHCPLEKALEICQQRNFVEETVYLLSRMGNSRSALKMIMEELHDVDKAIEFAKEQDDGELWEDLILYSIDKPPFITGLLNNIGTHVDPILLIHRIKEGMEIPNLRDSLVKILQDYNLQILLREGCKKILVADSLSLLKKMHRTQMKGVLVDEENICESCLSPILPSDAAKPFSVVVFHCRHMFHKECLPMPSMNSAAQFCNICSAKNRGPGSAILEMKK
Consider B2, for which the binding result in the assay with GST–Rab7, P51149 was “no binding”.

Values taken from paper PMC4432227.
